Measured values published in PubChem BioAssay AID2685 (National Center for Advancing Translational Sciences (NCATS), 2010).
This is one part of the list. These are further read-outs of the screen, such as a control signal, another cell line or another target. No call is given for them. Most of these compounds were active or inconclusive in the main read-out, so they are no random draw. Words in brackets tell the shape of the fitted curve; partial curves, single points and poor fits give uncertain potencies.

Test: qHTS Assay for Lipid Storage Modulators in Drosophila S3 Cells;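 as to cell number change: cells counted by Cell Tracker Red CMTPX staining in the red channel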
Settings: BODIPY lipid droplet fluorescence, 18-24 h; for cell number change: measured here: cell count max response, cells fed with added oleic acid
In short: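 Drosophila S3 cells loaded with oleic acid (400 uM, as added) and compounds at several concentrations; lipid droplets imaged by 488-nm laser-scanning cytometry, 500–530 nm intensity and object ratio to cell channel. Percent activity normalized to 20 uM Triacsin C.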

[1] = measured here: lipid fluorescence (Fed channel) AC50, cells fed with added oleic acid
[2] = measured here: cell number channel AC50, cells fed with added oleic acid

C=CCC(NC(=O)c1ccc(C#N)cc1)C(=O)NCCC (stereo not drawn)
cell number change: 15.2% | AC50 [1]: 29.1 µM [rising, single point]

CC1=CC(C)[C@H](/C=N/n2c(=O)[nH]c3c([nH]c4ccc(Br)cc43)c2=O)C(C)C1 (stereo partly drawn)
cell number change: -79.7% | AC50 [2]: 4.61 µM [falling, full curve] | AC50 [1]: 5.17 µM [falling, partial curve]

O=C(NCCc1ccccn1)c1nc(Cn2ccc([N+](=O)[O-])n2)no1
cell number change: 17.1% | AC50 [1]: 0.00411 µM [falling, full curve, poor fit]

Cc1ccc(-n2cc(CN3CCC(O)(c4ccccn4)CC3)c(-c3ccc(F)cc3)n2)cc1
cell number change: -35.6% | AC50 [2]: 18.4 µM [falling, single point]

CCOc1ccc(S(=O)(=O)NCc2ccccn2)cc1NC(=O)c1ccccc1
cell number change: 15.8% | AC50 [2]: 2.31 µM [rising, single point]

COc1ccc(OC)c(NC(=O)CCCNC(=O)Cn2cnc3sc(C)c(C)c3c2=O)c1
AC50 [1]: 6.51 µM [falling, single point]

O=C(CN1C(=O)COc2ccccc21)NCCN1CCCC1
cell number change: 0.917% | AC50 [1]: 29.1 µM [falling, single point]

O=C(CSc1ncn[nH]1)Nc1nnc(-c2ccccc2)s1
cell number change: 30% | AC50 [2]: 0.58 µM [rising, full curve, poor fit] | AC50 [1]: 10.3 µM [rising, partial curve, poor fit]

CC1CCc2ccccc2N1C(=O)c1cccs1 (stereo not drawn)
cell number change: -5.39% | AC50 [1]: 0.461 µM [falling, full curve]

CCc1ccccc1OCC(=O)Nc1ccc(C)c(S(=O)(=O)N2CCCCCC2)c1
cell number change: -14.3% | AC50 [1]: 2.91 µM [falling, partial curve]

O=C(NCCCN1CCCCC1)C1(S(=O)(=O)c2ccc(Cl)cc2)CC1
cell number change: -8.28% | AC50 [1]: 25.9 µM [falling, partial curve, poor fit]

Cc1ccc(NC(=O)C2CC3CCC2C3)c(Br)c1 (stereo not drawn)
cell number change: -7.37%

COc1ccc(C(C(=O)NC(C)(C)C)N(C(=O)CCC(=O)Nc2cc(C)on2)c2ccc3c(c2)OCCO3)cc1 (stereo not drawn)
cell number change: -5.71% | AC50 [1]: 29.1 µM [rising, single point]

COc1cc(C2CC(=O)OC3=C2C(=O)CC(C)(C)C3)cc(OC)c1OC (stereo not drawn)
cell number change: 8.39% | AC50 [2]: 0.651 µM [rising, single point]

CC(=O)CC(=O)Nc1ncc(C(F)(F)F)cc1Cl
cell number change: -30.4% | AC50 [2]: 1.84 µM [falling, partial curve] | AC50 [1]: 9.2 µM [falling, single point]

Cc1nc(NC(=S)NC(=O)c2ccccc2)sc1C(=O)N(C)C
cell number change: -6.72%

Cc1cccc(C(=O)Nc2nnc(SCC(=O)Nc3ccc4c(c3)oc3ccccc34)s2)c1
cell number change: -57.8% | AC50 [2]: 32.6 µM [falling, partial curve, poor fit]

Cc1c(Cl)cccc1NC(=O)CN1C(=O)CSc2ncccc21
cell number change: 18.6% | AC50 [1]: 0.82 µM [rising, single point]

COc1cc(N2CCCC2)c(OC)cc1/C=C(/C#N)c1cccc(F)c1
cell number change: -72.3% | AC50 [2]: 29.1 µM [falling, single point] | AC50 [1]: 29.1 µM [falling, partial curve]

Cc1cc(C)n2[nH]c(=O)c(N=Nc3ccccc3)c2n1
cell number change: 48.7% | AC50 [2]: 23.1 µM [rising, single point]

COc1cccc(-c2cc(C(F)(F)F)nc(-n3cccn3)n2)c1
cell number change: 87.9% | AC50 [2]: 1.84 µM [rising, partial curve] | AC50 [1]: 2.91 µM [rising, partial curve]

Cc1ccc(C23CC4CC(CC(NC(=O)N5CCN(C)CC5)(C4)C2)C3)cc1
cell number change: -19.3%

Cc1c(Br)c([N+](=O)[O-])nn1CC(=O)c1ccccc1
cell number change: 76.1% | AC50 [2]: 29.1 µM [rising, single point] | AC50 [1]: 29.1 µM [rising, single point]

COc1cccc(CC(=O)n2nc(N)c3cc4ccc(OC)cc4nc32)c1
cell number change: -20.1% | AC50 [1]: 29.1 µM [falling, single point]

CSc1nsc(SCC(=O)Nc2ccccc2F)n1
cell number change: -7.89% | AC50 [1]: 3.55 µM [rising, single point]

COc1ccc(C2/C(=C(/O)c3ccccc3)C(=O)C(=O)N2C)c(OC)c1 (stereo not drawn)
cell number change: 13.1%

CC(=O)C1=NN(c2ccccc2)C(c2cccs2)N1c1ccccc1 (stereo not drawn)
AC50 [2]: 2.91 µM [rising, single point]

CCOc1cccc(C(=O)Nc2ccc(NC(=O)c3cc4ccccc4o3)c(OC)c2)c1
cell number change: -25.4% | AC50 [1]: 13 µM [falling, single point]

COc1ccccc1OCCn1nnc2ccccc21
cell number change: -7.14%

CC(C)(C)C(=O)NC(=C(Cl)Cl)P(=O)(O)O
cell number change: -3.12%

CCCCc1c(O)nc(SCC(=O)N2CCCCC2)n(-c2ccccc2C)c1=O
cell number change: 21%

Cn1c(C(=O)O)ccc1S(=O)(=O)N(Cc1ccccc1)Cc1ccccc1
cell number change: 5.54% | AC50 [1]: 6.51 µM [falling, single point]

O=C1N=C(N2CCCCC2)S/C1=C\c1ccccc1F
cell number change: -7.94%

O=C(Nc1ccc(Br)c2cccnc12)c1ccc(Cn2cc(Cl)cn2)o1
cell number change: -20.1% | AC50 [1]: 1.03 µM [rising, full curve]

Nc1nccnc1C(=O)OCC(=O)NCCc1ccc(S(N)(=O)=O)cc1
cell number change: -22.5% | AC50 [1]: 20.6 µM [falling, single point]

Cc1ccc(S(=O)(=O)Nc2cc3c(cc2N2CCOCC2)n(C)c(=O)c(=O)n3C)cc1
cell number change: 5.28% | AC50 [1]: 29.1 µM [falling, single point]

O=C(c1cc(C2CC2)nc2ccccc12)N1N=C(C(F)F)CC1(O)C(F)F (stereo not drawn)
cell number change: -33.7% | AC50 [2]: 8.2 µM [falling, partial curve]

Cc1ccc(NC(=O)CCn2c(=O)[nH]c3ccsc3c2=O)cc1F
cell number change: 95% | AC50 [2]: 23.1 µM [rising, single point]

CCNC(=S)NCCN1CCOCC1
cell number change: 33.3% | AC50 [2]: 32.6 µM [rising, single point]

O=c1sc2ccccc2c(N2CCCC2)c1[N+](=O)[O-]
cell number change: -43.6% | AC50 [2]: 11.6 µM [falling, partial curve, poor fit] | AC50 [1]: 2.31 µM [falling, partial curve]

CC(=O)Nc1ccc(S(=O)(=O)N2CCN(C(=O)C3COc4ccccc4O3)CC2)cc1 (stereo not drawn)
cell number change: 39% | AC50 [2]: 32.6 µM [rising, single point] | AC50 [1]: 25.9 µM [rising, partial curve]

Cc1cccc(C(=O)NCC2CCN(C(=O)c3cccc(C)c3)CC2)c1
cell number change: -0.99% | AC50 [2]: 0.92 µM [rising, full curve, poor fit]

Cc1ccc(C(=O)Nc2ccc(C)c(S(=O)(=O)N(C)C)c2)s1
cell number change: 31.6% | AC50 [2]: 5.17 µM [rising, partial curve]

O=S(=O)(NCCCCCNS(=O)(=O)c1c(F)cccc1F)c1ccc2c(c1)OCCO2
cell number change: -46.4% | AC50 [2]: 7.31 µM [falling, partial curve] | AC50 [1]: 7.31 µM [falling, partial curve]

C=C[C@@H]1c2ccccc2N(S(=O)(=O)c2ccc(C)cc2)[C@H](c2ccc(OC(C)=O)cc2)C1(C#N)C#N
cell number change: -30.6% | AC50 [2]: 7.31 µM [falling, full curve, poor fit]

CCCCNC(=O)[C@]1(C)CCC[C@@]2(C)C3CC[C@@]4(C)C[C@]3(CCC21)CC4=O (stereo partly drawn)
AC50 [1]: 0.58 µM [falling, partial curve]

O=C(NNC(=O)c1ccc[nH]1)Nc1cccc(C(F)(F)F)c1
cell number change: -52% | AC50 [2]: 29.1 µM [falling, single point] | AC50 [1]: 29.1 µM [falling, single point]

O=C(Nc1cccc(C(=O)O)c1)/C(=C/c1ccc([N+](=O)[O-])cc1)NC(=O)c1ccccc1
AC50 [1]: 0.146 µM [falling, full curve]

C=CCc1cccc(/C=N/NC(=O)c2ccc3nc[nH]c3c2)c1O
cell number change: -15.2% | AC50 [1]: 29.1 µM [falling, single point]

CCN1C(=O)[C@H]2[C@@H](c3ccc(C)cc3)N3C(=O)N(c4ccc(C(F)(F)F)cc4)C(=O)[C@@]3(CC(C)C)[C@H]2C1=O
AC50 [1]: 20.6 µM [falling, partial curve, poor fit]

O=C(NCCS(=O)(=O)N1CCC2(CC1)OCCO2)c1ccccc1
cell number change: 2.33% | AC50 [2]: 0.116 µM [falling, full curve, poor fit] | AC50 [1]: 0.13 µM [falling, full curve, poor fit]

Cc1ccc(N2C(=O)NC(NC(=O)C(C)(C)C)(C(F)(F)F)C2=O)cc1C (stereo not drawn)
cell number change: 143%

Cc1ccc(S(=O)(=O)Nc2nc3ccc(N)cc3s2)cc1
cell number change: -0.435%

CSCC(C)N1CCC(n2nccc2NC(=O)c2ccc3c(c2)OCO3)CC1 (stereo not drawn)
cell number change: -8.49% | AC50 [1]: 29.1 µM [rising, single point]

CCCN(C(=O)CCNC(=O)Cn1cnc2ccccc2c1=O)c1cccc(Cl)c1
cell number change: -0.84% | AC50 [1]: 6.51 µM [falling, single point]

C=CCN1C(=O)CSc2ccc(C(=O)NCCC3=CCCCC3)cc21
AC50 [2]: 6.51 µM [rising, partial curve, poor fit] | AC50 [1]: 0.116 µM [rising, full curve, poor fit]

Cc1ccc(NC(=O)N2CCCC2C(=O)NCCc2ccccc2)cc1 (stereo not drawn)
cell number change: -26.8% | AC50 [2]: 4.11 µM [falling, full curve, poor fit] | AC50 [1]: 8.2 µM [falling, partial curve, poor fit]

COc1ccc(S(=O)(=O)N(CC(=O)NCC2CCCO2)c2ccccc2)cc1OC (stereo not drawn)
cell number change: 46.8% | AC50 [2]: 6.51 µM [falling, single point]
